For 1 substance, binding results are on record in doi:10.1101/2023.04.27.538541.

Amino acid sequences for entries named in this document (tags omitted). A change or cut given only in a name is not applied to a line headed by its entry.
UniProt Q6NZQ4: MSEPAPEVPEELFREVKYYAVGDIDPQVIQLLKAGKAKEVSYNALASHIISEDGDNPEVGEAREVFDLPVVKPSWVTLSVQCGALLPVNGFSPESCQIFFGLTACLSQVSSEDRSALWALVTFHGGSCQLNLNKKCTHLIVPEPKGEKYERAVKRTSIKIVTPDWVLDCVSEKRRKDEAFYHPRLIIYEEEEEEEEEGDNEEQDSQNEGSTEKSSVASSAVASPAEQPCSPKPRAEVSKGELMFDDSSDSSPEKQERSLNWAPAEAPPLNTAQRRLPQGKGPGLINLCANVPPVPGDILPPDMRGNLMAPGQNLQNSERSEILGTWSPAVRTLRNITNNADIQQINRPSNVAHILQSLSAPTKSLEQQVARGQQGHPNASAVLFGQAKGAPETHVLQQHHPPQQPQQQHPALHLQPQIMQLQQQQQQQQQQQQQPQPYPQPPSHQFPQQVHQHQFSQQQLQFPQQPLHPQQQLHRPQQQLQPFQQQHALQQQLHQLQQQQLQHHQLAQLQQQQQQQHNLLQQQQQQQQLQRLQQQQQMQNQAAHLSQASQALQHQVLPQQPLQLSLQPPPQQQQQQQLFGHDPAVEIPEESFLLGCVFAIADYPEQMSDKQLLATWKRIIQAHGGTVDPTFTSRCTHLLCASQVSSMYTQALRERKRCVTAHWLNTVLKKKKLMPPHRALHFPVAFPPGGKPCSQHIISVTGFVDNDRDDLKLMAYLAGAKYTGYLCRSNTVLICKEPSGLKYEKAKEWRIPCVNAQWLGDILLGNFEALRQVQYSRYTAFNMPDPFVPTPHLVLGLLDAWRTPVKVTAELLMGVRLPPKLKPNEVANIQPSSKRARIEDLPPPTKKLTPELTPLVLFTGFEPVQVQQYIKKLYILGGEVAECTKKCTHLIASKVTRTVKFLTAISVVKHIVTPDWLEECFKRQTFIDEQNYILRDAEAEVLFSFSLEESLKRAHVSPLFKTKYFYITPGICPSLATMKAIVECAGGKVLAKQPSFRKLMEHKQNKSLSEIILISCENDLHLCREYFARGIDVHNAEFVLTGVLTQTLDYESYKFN
UniProt A0A140LI88: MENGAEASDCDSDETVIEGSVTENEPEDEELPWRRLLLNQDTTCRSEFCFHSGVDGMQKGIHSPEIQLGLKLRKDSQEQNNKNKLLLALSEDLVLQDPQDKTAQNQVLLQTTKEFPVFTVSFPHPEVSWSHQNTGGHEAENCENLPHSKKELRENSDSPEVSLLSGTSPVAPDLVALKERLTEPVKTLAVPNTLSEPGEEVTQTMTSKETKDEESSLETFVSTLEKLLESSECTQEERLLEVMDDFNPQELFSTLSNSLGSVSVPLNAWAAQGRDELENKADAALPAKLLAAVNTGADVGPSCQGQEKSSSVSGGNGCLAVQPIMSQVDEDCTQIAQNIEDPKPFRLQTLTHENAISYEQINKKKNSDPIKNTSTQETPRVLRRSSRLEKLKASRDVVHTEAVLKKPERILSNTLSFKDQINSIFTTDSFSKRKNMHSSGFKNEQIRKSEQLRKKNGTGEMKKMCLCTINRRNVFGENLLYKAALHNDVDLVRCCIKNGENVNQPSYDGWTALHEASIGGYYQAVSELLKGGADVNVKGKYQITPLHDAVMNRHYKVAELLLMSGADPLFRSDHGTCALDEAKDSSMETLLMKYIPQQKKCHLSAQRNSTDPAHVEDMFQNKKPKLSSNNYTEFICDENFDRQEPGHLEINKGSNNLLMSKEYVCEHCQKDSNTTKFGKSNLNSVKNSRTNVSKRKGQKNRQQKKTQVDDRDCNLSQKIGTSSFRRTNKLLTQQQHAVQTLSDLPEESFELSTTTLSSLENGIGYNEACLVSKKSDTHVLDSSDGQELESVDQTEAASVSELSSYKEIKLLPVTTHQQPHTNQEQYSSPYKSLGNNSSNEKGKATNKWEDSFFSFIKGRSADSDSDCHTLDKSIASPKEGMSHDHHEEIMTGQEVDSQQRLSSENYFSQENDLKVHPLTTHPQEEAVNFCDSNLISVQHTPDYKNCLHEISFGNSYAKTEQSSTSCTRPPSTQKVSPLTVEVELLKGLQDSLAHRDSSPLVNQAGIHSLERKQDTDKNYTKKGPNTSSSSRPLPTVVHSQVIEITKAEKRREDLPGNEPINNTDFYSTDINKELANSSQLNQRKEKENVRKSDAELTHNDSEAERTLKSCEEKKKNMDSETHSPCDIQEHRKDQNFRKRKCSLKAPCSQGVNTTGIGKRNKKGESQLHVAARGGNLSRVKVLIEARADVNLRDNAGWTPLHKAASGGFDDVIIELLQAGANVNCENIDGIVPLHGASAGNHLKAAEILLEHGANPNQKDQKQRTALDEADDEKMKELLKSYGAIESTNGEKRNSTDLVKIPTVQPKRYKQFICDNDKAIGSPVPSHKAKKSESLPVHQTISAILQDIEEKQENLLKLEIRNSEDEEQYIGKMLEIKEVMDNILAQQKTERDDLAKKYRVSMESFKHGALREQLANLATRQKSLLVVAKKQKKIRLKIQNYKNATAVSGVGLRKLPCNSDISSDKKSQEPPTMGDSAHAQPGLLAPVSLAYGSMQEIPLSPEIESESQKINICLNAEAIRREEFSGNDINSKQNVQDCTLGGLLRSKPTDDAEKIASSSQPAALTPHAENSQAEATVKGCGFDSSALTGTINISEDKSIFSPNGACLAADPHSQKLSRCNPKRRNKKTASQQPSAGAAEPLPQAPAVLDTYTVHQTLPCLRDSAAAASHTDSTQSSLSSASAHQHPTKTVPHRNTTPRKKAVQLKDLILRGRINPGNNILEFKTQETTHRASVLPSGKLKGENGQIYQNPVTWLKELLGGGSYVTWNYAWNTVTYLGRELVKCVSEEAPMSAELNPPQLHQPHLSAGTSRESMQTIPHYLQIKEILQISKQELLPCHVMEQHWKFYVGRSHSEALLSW

These are yes or no findings as the source states them, for the method shown. For some of these results: Binding can be weak; no strength is given.

Holding throughout (test): two-hybrid; Gal4 AD and BD fusions (pGADT7, pGBKT7); mating of Y187 and Y2HGold strains; selection on SD-Trp/Leu/AbA (200 ng/ml Aureobasidin A; moderate stringency) or SD-Trp/Leu/Ade/His/AbA (high stringency)
One experiment deals with T1, MEI1 (mouse) (UniProt Q9D4I2).
T1 sequence: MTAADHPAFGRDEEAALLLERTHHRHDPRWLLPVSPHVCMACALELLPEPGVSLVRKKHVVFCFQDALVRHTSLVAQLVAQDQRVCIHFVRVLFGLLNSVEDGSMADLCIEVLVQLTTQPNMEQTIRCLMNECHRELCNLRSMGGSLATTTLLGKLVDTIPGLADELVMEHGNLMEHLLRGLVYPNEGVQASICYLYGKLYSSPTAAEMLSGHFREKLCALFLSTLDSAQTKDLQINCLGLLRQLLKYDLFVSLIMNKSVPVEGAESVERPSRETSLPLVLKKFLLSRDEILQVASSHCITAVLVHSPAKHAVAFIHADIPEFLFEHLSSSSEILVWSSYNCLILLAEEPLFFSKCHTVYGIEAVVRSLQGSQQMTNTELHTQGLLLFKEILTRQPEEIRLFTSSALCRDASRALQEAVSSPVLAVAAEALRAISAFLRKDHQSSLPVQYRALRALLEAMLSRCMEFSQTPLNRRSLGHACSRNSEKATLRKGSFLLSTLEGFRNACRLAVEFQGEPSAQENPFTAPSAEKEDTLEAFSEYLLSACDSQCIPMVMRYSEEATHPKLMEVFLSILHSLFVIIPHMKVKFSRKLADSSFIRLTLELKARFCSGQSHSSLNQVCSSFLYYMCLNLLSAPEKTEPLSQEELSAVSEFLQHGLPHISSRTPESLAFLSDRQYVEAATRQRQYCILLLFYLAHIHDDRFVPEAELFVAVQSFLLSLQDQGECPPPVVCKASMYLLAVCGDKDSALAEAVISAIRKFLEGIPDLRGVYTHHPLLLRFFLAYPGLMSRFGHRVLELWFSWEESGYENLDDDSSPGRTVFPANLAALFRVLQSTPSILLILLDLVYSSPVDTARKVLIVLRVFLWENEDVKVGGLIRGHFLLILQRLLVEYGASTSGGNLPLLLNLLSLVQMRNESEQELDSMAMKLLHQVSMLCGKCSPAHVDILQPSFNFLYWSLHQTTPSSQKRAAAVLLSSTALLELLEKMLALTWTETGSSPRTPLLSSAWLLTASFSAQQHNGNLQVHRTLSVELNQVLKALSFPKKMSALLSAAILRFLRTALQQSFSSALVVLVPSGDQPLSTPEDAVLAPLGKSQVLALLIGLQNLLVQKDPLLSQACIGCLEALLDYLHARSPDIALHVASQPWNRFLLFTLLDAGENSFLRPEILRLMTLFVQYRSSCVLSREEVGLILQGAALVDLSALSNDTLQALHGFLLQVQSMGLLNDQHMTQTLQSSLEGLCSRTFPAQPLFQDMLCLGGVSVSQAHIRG

The target of the next experiment is PTIP (mouse) (UniProt Q6NZQ4).
Experiment [1] has as its target T2, REC114N (N-terminal part of REC114) (mouse) (UniProt Q9CWH4).
T2 sequence: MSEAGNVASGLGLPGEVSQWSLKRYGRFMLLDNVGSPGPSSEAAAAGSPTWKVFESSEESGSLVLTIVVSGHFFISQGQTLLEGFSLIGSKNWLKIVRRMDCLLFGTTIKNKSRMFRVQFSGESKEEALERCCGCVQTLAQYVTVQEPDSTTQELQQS

Another experiment deals with T3, ZMYM3 (mouse) (UniProt Q9JLM4).
T3 sequence: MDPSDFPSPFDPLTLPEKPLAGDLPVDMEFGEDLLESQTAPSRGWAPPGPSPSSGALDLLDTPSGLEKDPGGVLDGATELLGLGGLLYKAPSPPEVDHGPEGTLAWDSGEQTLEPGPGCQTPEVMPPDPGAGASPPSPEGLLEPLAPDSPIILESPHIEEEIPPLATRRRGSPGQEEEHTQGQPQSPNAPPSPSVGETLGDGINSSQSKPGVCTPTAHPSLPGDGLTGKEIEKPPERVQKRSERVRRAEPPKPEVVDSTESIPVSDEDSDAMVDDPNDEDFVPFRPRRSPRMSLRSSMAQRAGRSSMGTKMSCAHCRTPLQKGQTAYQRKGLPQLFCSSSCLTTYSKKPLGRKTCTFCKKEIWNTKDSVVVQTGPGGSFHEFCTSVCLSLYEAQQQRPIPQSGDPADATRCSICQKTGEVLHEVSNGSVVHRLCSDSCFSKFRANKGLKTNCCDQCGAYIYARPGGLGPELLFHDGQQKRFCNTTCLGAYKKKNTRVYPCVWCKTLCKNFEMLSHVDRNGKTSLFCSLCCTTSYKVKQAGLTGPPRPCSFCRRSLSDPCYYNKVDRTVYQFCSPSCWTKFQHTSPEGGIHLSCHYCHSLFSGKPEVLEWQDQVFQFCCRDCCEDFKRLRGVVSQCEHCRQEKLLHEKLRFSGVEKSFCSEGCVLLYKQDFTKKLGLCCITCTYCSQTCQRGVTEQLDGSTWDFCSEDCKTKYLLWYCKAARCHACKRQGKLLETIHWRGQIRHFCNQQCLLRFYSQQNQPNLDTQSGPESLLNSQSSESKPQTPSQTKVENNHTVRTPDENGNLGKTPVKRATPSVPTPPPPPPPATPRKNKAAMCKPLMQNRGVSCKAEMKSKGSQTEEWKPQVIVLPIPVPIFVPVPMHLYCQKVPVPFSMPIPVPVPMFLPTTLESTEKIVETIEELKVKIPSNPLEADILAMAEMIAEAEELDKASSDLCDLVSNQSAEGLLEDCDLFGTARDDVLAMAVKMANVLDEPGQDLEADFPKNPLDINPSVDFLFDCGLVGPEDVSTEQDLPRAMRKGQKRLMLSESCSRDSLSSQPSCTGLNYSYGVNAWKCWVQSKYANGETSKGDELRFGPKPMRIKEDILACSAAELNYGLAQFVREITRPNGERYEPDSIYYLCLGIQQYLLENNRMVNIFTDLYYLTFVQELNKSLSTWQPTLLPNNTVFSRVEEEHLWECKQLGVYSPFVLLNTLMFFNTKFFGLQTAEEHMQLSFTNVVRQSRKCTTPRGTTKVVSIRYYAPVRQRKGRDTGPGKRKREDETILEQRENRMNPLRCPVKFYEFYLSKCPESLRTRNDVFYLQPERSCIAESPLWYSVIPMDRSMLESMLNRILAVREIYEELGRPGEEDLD

Take “ANKRD31-ΔC (otherwise full-length ANKRD31 with C-terminal frameshift truncation) (from UniProt A0A140LI88)”: the binding entry is given as “binds” in the experiment with MEI1 (mouse), “binds” with PTIP (mouse), “no binding” in experiment [1] and “binds” with ZMYM3 (mouse).
